Measurements reported in PubChem BioAssay AID463183 (Sanford-Burnham Center for Chemical Genomics, 2010).
Some of the results follow. The main result of the screen is listed elsewhere. These columns were measured beside it and carry no call. Most of these compounds were active or inconclusive in the main read-out, so they are no random draw.

Assay: blockers of oleate-driven lipid droplets in liver cells – imaging, AML12 mouse hepatocytes, single concentration, high-content, confirmation (AID 463183);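 further: cells counted after overnight compound exposure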
Conditions: BODIPY lipid droplet imaging, measured here: cell count, cytotoxicity, at 5.2 µM, droplets induced with 100 µM oleic acid

| SMILES | cell count [cells] |
| --- | --- |
| Cc1c(O)ccc(/C=N/Nc2nc(-c3cccnc3)nc3ccccc23)c1O | 1130 |
| Cc1ccc2nc(=O)c(NNc3ccccc3)cnc2c1 | 1240 |
| CCOc1ccc(C(=O)NCC(=O)NC(C)CCc2ccccc2)cc1OCC (stereo not drawn) | 1530 |
| Clc1ccc(Nc2nc(NCCN3CCOCC3)nc(N3CCOCC3)n2)cc1 | 1140 |
| CCOc1ccc(C(=O)CCC(=O)NCC(=O)OCc2ccccc2)cc1OCC | 1650 |
| COc1ccc(OC)c(NC(=O)Cc2coc3ccc4ccccc4c23)c1 | 1570 |
| COc1ccc(Br)cc1CNC(=O)CCCc1cn(C)c2ccccc12 | 1580 |
| O=C(CNCCC1=CCCCC1)Nc1ccccc1N1CCCCC1 | 1620 |
| CCOc1ccc(CCNC(=O)/C=C/c2ccco2)cc1OCC | 1590 |
| CS(=O)(=O)N(CC(=O)Nc1ccc2c(c1)OCO2)Cc1ccccc1 | 1620 |
| O=C(Nc1ccc([N+](=O)[O-])cn1)c1cc(-c2cccc(Br)c2)nc2ccccc12 | 1570 |
| O=[N+]([O-])c1ccccc1/C=C/C=N/Nc1ccc(S(=O)(=O)Nc2ccc(Cl)cc2)cc1[N+](=O)[O-] | 1540 |
| Cc1cccc(NC(=O)N2CCC(C(=O)c3ccc(F)cc3)CC2)c1 | 1570 |
| O=[N+]([O-])c1ccc(-[n+]2nc(-c3ccccc3)nn2-c2ccccc2)cc1 | 1620 |
| COc1ccc(C(=O)OC(C)C(=O)NC(C)CCc2ccccc2)cc1OC (stereo not drawn) | 1540 |
| CCOc1ccc(CCNC(=O)C2CC(=O)N(Cc3ccc(OC)cc3)C2)cc1OCC (stereo not drawn) | 1560 |
| CCC(C)NCCOc1ccc(C(C)(C)c2ccccc2)cc1 (stereo not drawn) | 1590 |
| CCc1ccccc1NC(=O)COc1ccc(C(=S)N2CCCC2)cc1 | 1550 |

A different layout for part of the listing above.
SMILES | cell count [cells]
Cc1cccc(NC(=O)N2CCC(C(=O)c3ccc(F)cc3)CC2)c1 | 1570
O=[N+]([O-])c1ccc(-[n+]2nc(-c3ccccc3)nn2-c2ccccc2)cc1 | 1620
COc1ccc(C(=O)OC(C)C(=O)NC(C)CCc2ccccc2)cc1OC (stereo not drawn) | 1540
CCOc1ccc(CCNC(=O)C2CC(=O)N(Cc3ccc(OC)cc3)C2)cc1OCC (stereo not drawn) | 1560
